These results are taken from paper PMC11350264.

Protein sequences, listed by entry. Tags and fused reporters are not part of them. Lines headed by an entry give the natural chain unless they say otherwise; changes in a name come on top.
UniProt Q5VMP0: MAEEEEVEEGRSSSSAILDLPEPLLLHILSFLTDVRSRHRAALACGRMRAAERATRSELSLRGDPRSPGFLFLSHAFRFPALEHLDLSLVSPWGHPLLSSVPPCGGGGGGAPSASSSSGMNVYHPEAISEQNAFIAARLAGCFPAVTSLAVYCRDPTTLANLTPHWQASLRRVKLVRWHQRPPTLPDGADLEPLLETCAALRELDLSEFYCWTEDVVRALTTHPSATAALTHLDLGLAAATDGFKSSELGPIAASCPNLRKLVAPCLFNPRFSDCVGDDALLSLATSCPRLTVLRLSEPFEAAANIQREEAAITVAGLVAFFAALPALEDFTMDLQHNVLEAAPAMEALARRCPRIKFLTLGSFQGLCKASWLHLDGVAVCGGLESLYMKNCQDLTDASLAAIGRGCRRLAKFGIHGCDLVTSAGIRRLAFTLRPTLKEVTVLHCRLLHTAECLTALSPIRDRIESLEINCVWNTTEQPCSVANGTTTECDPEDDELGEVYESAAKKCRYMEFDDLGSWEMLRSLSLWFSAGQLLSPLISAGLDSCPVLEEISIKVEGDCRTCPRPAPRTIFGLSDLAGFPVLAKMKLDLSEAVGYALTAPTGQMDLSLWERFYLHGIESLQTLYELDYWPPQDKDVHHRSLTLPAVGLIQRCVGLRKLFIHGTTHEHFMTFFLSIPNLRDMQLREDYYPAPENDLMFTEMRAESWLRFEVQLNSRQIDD

Changes are numbered by the printed parent chain. Results are given in words; binding and its absence hold for the method and conditions named. Some entries that bind do so weakly or less than the wild type. Where a sequence is shown, tags or fusion partners need not be part of it.

The target in test [1] is T1, GST-OsKAI2 (rice KAI2 receptor, wildtype, GST fusion) (rice (Oryza sativa)) (UniProt Q10J20).
T1 sequence: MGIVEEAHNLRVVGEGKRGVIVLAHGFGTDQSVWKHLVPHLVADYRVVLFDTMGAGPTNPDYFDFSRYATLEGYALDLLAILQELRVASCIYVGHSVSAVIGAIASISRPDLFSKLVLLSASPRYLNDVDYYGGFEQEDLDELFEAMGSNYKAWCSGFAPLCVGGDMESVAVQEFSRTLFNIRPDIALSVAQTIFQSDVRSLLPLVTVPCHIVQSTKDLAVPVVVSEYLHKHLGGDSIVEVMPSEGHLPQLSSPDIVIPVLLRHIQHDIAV
As to the kind of experiment: pull-down; GST-KAI2 or GST-KAI2^int on GST beads (blocked with BSA) incubated with purified His-MSB OsD3-ASK1 and 100 μM (−)-GR24 for 30 min on ice; wash buffer 50 mM Tris, 150 mM NaCl, 1% glycerol, 1 mM TCEP; eluted with reduced glutathione; Western blot with anti-His, band intensity quantified; both ….

In test [2] the target is T2, GST-OsKAI2^int (rice KAI2 with D30A, D51A, E174A, N181A, GST fusion) (rice (Oryza sativa)) (UniProt Q10J20).
T2 sequence: T1 sequence with D30A, D51A, E174A, N181A
Described as above.

For “HisMSB-OsD3-ASK1 (rice F-box protein DWARF3 in complex with ASK1) (from UniProt Q5VMP0 1-720; Q39255 1-160)”, the binding entry in test [1] and in test [2] was “binds” in each case.
